Test results reported in patent US8575094B2 (Novacta Biosystems Limited, priority 2007, dated 2013).

Assay: general procedure: peptide synthesis; PyBOP / diisopropylethylamine; Fmoc-amino acid pentafluorophenyl ester / HOBt
Conditions: late stage modification step

Substance	step yield [%]
Deoxy-Actagardine B [tris(hydroxymethyl)methylamine]monocarboxamide	69
Deoxy-Actagardine B [1-(3-dimethylaminopropyl)piperazine]monocarboxamide	46
Deoxy-Actagardine B N-[3-dimethylaminopropyl]monocarboxamide	85
Deoxy-Actagardine B N-[1-(1-methyl-4-piperidinyl)piperazine]monocarboxamide	37
